According to PMC9794587 (Frontiers in Pharmacology, 2022):
Some peptides are written in HELM: one residue between dots, names in brackets for other building blocks, links after the first $.

Experiment: peptide synthesis
Conditions: whole synthesis

PEPTIDE1{G.E.P.P.P.G.K.P.A.D.D.A.G.L.V}$$$$V2.0
final purity (method not given): 99%
